Screen size: about 350,000 compounds; about 1,200 (0.34%) were called active. The inconclusive results got no clear call from the source; some entries with a clear call stand among them for comparison. Calls follow the shape of the dose curve; as a rule, active = well fitted inhibition curve with a large enough effect; inconclusive = small, poorly fitted or top-dose-only effect; inactive = no such curve, though single readings can be large or run the other way. Potencies of inconclusive entries are doubtful fits and often do not repeat.
Each compound was assayed against DNA repair nuclease/redox regulator APEX1 (Homo sapiens) (UniProt P27695) (assay: qHTS Assay for Inhibitors of the Human Apurinic/apyrimidinic Endonuclease 1 (APE1)). Details: recombinant APE1, TAMRA/BHQ-2 abasic DNA cleavage fluorescence; activity change, negative = inhibition: at 65.8 µM (top of the series).
How it was run: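 Measures dequenching upon AP-site incision of a 5'-TAMRA/3'-BHQ-2 THF-containing duplex, 50 nM; human APE1 0.75 nM after 15 min room-temperature exposure to compound; kinetic three-point read at one-minute spacing.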
Also: nearly all actives have a fitted effect of over 55% in size.
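For activity change, negative = inhibition in this document: plate controls were vehicle for no effect and reference inhibitor for full effect.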
Potency is read from the fitted curve at half-maximal effect.

The chains behind the UniProt entries cited, without tags or fusion partners.
UniProt P27695, whole entry, looked up: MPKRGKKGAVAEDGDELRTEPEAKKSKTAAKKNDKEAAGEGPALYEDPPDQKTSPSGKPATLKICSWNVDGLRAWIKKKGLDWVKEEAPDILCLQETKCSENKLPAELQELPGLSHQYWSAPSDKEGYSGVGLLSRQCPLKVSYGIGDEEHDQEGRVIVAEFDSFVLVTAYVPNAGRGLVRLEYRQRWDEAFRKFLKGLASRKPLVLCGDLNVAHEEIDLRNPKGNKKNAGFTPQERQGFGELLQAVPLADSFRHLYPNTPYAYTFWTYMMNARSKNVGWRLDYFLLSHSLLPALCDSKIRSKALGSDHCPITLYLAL

Structure (SMILES)	activity change, negative = inhibition	Potency
CC(NC(=O)/C(=C/c1cccc([N+](=O)[O-])c1)NC(=O)c1ccco1)C(=O)O (configuration not stated)	inactive: 20.9%	–
O=C(CCCC(=O)OCC(=O)c1ccc(F)cc1)Nc1cc(C(F)(F)F)ccc1Cl	–	inconclusive: 22.4 µM [inhibitor, single point]
COc1cccc(OCC(O)CN2CCN(CCN3C(=O)c4cccc5cccc(c45)C3=O)CC2)c1 (configuration not stated)	–	inconclusive: 28.2 µM [inhibitor, single point]
Cc1noc(C)c1-c1ccc2ncnc(N3CCN(C)CC3)c2c1	–	inconclusive: 3.55 µM [inhibitor, single point]
O=C(COC(=O)c1ccc([N+](=O)[O-])s1)Nc1ncc(C(F)(F)F)cc1Cl	–	inconclusive: 7.08 µM [inhibitor, single point]
NC(=O)c1c(NC(=O)CSc2nnc(-c3ccco3)n2N)sc2c1CCCC2	–	inconclusive: 28.2 µM [inhibitor, single point]
CCCCN1C(=N)N([C@@H](CCC)CN2CCC[C@H]2CN2C(N)=NC[C@@H]2Cc2ccccc2)C[C@H]1[C@H](C)CC	–	inconclusive: 23.8 µM [inhibitor, single point]
Cc1c(NC(=O)COC(=O)c2cc3c4ccccc4n(C)c3s2)c(=O)n(-c2ccccc2)n1C	–	inconclusive: 0.0079 µM [inhibitor, full curve, poor fit]
Cc1ccc2nc(SCC(=O)NCc3ccccc3Cl)nc(=O)n2c1	inactive: 5.6%	–
Cc1nnc(N2C(=O)c3oc4ccccc4c(=O)c3C2c2ccco2)s1 (configuration not stated)	–	inconclusive: 25.1 µM [inhibitor, partial curve]
CCCCn1c(=O)c2ccccc2n2c(=S)[nH]nc12	inactive: 28.2% [at 12.4 µM]	–
CC1CCC(C(=O)O)NC1c1ccc(C#CCN(C)C)cc1 (configuration not stated)	–	inconclusive: 3.16 µM [inhibitor, single point]
N#C/C(=C\c1ccc(N2CCOCC2)c([N+](=O)[O-])c1)c1nc2ccccc2[nH]1	–	inconclusive: 28.2 µM [inhibitor, partial curve]
COCCN(CC(=O)Nc1cccc(C)c1C)C(=O)c1cc2c(s1)CCC2	–	active: 15 µM
CC(C)Cc1nc2n[nH]c(N)c2c2c1CCCC2	inactive: 4.86%	–
Cc1nn(C(C)C(=O)N2CCc3ccccc3C2)c(=O)c2cc3occc3n12 (configuration not stated)	–	inconclusive: 31.6 µM [inhibitor, single point]
COc1ccc(C(=O)N2CCN(Cc3ccccc3)CC2)cc1[N+](=O)[O-]	inactive: -0.763%	–
N#Cc1ccc(CN2CCC3(CC2)CCN(C(=O)c2csnn2)CC3)cc1	inactive: 3.7%	–
Cc1oc(-c2ccc(Cl)cc2)cc1-c1nn2c(-c3ccoc3C)nnc2s1	–	inconclusive: 15.8 µM [inhibitor, partial curve]
O=C(CSc1nc2ccccc2[nH]1)NC1CCCC1	–	inconclusive: 7.94 µM [inhibitor, partial curve]
Cc1noc(NS(=O)(=O)c2ccc(N/C=C\C(=O)c3cccs3)cc2)c1C	–	inconclusive: 39.8 µM [inhibitor, single point]
Cc1cc(C)c(-n2[nH]nnc2=S)c(C)c1	–	inconclusive: 0.0089 µM [inhibitor, full curve, poor fit]
O=C1[C@H]2[C@H]3[C@H](O)[C@H](O)C/C(=N/OC[C@@H](O)COCc4ccco4)[C@@H]3CC[C@@H]2C(=O)N1C[C@@H]1CCCO1	–	inconclusive: 4.47 µM [inhibitor, single point]

Structure (SMILES)	activity change, negative = inhibition	Potency
COc1cccc(C(=O)NCCN2CCN(c3ccc(Cl)cc3)CC2)c1	–	inconclusive: 0.004 µM [inhibitor, full curve, poor fit]
COc1cc(/C=N/NC(=O)c2ccc3nc[nH]c3c2)cc(OC)c1OC	inactive: -6.44%	–
CCCCCC1NC(=O)NC1CCCCCC(=O)O (configuration not stated)	inactive: -7.28%	–
O=C1CC(c2ccccc2)Cc2nc3ncnn3cc21 (configuration not stated)	inactive: -3.41%	–
CN1CCN(S(=O)(=O)c2cccc(C(=O)O)c2)CC1	–	inconclusive: 50.1 µM [inhibitor, single point]
Cn1c2ccccc2c2nnc(SCN3C(=O)c4ccccc4C3=O)nc21	–	inconclusive: 50.1 µM [inhibitor, partial curve, poor fit]
Cc1c(C(=O)OCC(=O)N2c3ccccc3CC2C)oc2ccccc12 (configuration not stated)	–	inconclusive: 44.7 µM [inhibitor, single point]
CC1C(=NO)C(C)C(c2ccc(N(C)C)cc2)NC1c1ccc(N(C)C)cc1 (configuration not stated)	inactive: -1.76%	–
COc1ccccc1NC(=O)c1ccc(NC(=O)CSc2nnnn2C)cc1	–	inconclusive: 25.1 µM [inhibitor, single point]
O=C(NCCSCc1ccco1)Nc1ccccc1	–	inconclusive: 22.4 µM [inhibitor, partial curve, poor fit]
COc1ccc(Cc2nnc(NC(=O)Cc3cccs3)s2)cc1OC	–	active: 28.2 µM
C/C(=N\NC(=O)c1cccc([N+](=O)[O-])c1)c1ccco1	inactive: 4.93%	–
Clc1cccc(Nc2ncnc3c2cnn3-c2ccccc2)c1	–	inconclusive: 39.8 µM [inhibitor, single point]
O=C(CSc1nnc(-c2ccco2)o1)NC(=O)C1COc2ccccc2O1 (configuration not stated)	–	inconclusive: 35.5 µM [inhibitor, single point]
COC(=O)c1[nH]c(=O)c2ccccc2c1OCc1ccccc1	inactive: 3.48%	–
CCCN1CCCC(c2cccc(S(C)(=O)=O)c2)C1 (configuration not stated)	–	inconclusive: 20 µM [inhibitor, single point]
Cc1cc[n+](-c2[nH]c(=O)sc2/C=N/N=C(\[O-])CCn2c3ccccc3c3ccccc32)cc1	inactive: 0.688%	–
O=C(COC(=O)c1cncc(Br)c1)NC1CCCCCC1	–	inconclusive: 5.62 µM [inhibitor, full curve, poor fit]
CC1=C(C(=O)OCC2CCCO2)C(c2ccsc2)C2=C(CC(C)(C)CC2=O)N1 (configuration not stated)	–	inconclusive: 22.4 µM [inhibitor, single point]
O=C(Cn1cc(C(F)(F)F)ccc1=O)Nc1ccccc1	–	inconclusive: 3.55 µM [inhibitor, single point]
COc1ccccc1NC(=O)N1CCc2c([nH]c3ccccc23)C1C(F)(F)F (configuration not stated)	–	inconclusive: 14.1 µM [inhibitor, partial curve]
NC(=O)C1(c2ccccc2)CCC(=O)N1c1ccccc1 (configuration not stated)	–	inconclusive: 0.005 µM [inhibitor, full curve, poor fit]
O=C(N/N=C/c1c(O)ccc2ccccc12)c1cccc(C(F)(F)F)c1	inactive: 0.0826%	–

Arranged by molecular weight (largest number first): some entries from above
Structure (SMILES)	activity change, negative = inhibition	Potency
Cc1cc[n+](-c2[nH]c(=O)sc2/C=N/N=C(\[O-])CCn2c3ccccc3c3ccccc32)cc1	inactive: 0.688%	–
COc1cc(/C=N/NC(=O)c2ccc3nc[nH]c3c2)cc(OC)c1OC	inactive: -6.44%	–
C/C(=N\NC(=O)c1cccc([N+](=O)[O-])c1)c1ccco1	inactive: 4.93%	–

Taken from the listing, 3 compounds:
Structure (SMILES)	activity change, negative = inhibition	Potency
COc1ccccc1NC(=O)c1ccc(NC(=O)CSc2nnnn2C)cc1	–	inconclusive: 25.1 µM [inhibitor, single point]
O=C(NCCSCc1ccco1)Nc1ccccc1	–	inconclusive: 22.4 µM [inhibitor, partial curve, poor fit]
COc1ccc(Cc2nnc(NC(=O)Cc3cccs3)s2)cc1OC	–	active: 28.2 µM

Later entries

Structure (SMILES)	activity change, negative = inhibition	Potency
CC1=C(C)CC(c2ccccc2)C(C(=O)c2ccccc2O)C1 (configuration not stated)	–	inconclusive: 5.62 µM [inhibitor, single point]
CC(=NCc1cccnc1)C1=C(O)c2ccccc2C1=O	–	inconclusive: 1.41 µM [inhibitor, full curve, poor fit]
CCOc1ccc(C(=O)Nc2ccc(-c3nc4ccccc4[nH]3)cc2)cc1[N+](=O)[O-]	inactive: 0.129%	–
C#CCCCO/N=C1/C[C@@H](O)[C@@H](O)[C@@H]2[C@@H]3C(=O)N([C@@H](C)c4ccccc4)C(=O)[C@H]3CC[C@@H]12	–	inconclusive: 3.16 µM [inhibitor, single point]
Cc1ccc(C(=O)NC2(O)C(=O)c3ccccc3C2=O)cc1C	–	inconclusive: 20 µM [inhibitor, single point]
C=C(C)C(=O)O[C@H]1C/C(C)=C\C(=O)/C=C(\C)[C@H](O)[C@@H]2OC(=O)C(=C)[C@@H]21	–	inconclusive: 39.8 µM [inhibitor, single point]
O=C(O)COc1ccccc1/C=C1\SC(=S)N(c2cccnc2)C1=O	–	inconclusive: 31.6 µM [inhibitor, single point]
O=C(O)/C(=C\c1ccc(Cl)cc1)c1ccc(S(=O)(=O)N2CCCC2)s1	inactive: -6.62%	–
COc1ccccc1-n1c(SCC(=O)Nc2ccccc2C)nc(O)cc1=O	inactive: 1.63%	–
Cc1ccc(C)c(NC(=O)C(Sc2nc3ccc(C)cc3[nH]2)c2ccccc2)c1 (configuration not stated)	–	inconclusive: 17.8 µM [inhibitor, single point]
N#Cc1sc2nc(-c3ccccc3)cc(-c3ccco3)c2c1N	–	inconclusive: 7.08 µM [inhibitor, partial curve]
Brc1ccc(Oc2nnnn2-c2ccccc2)cc1	–	inconclusive: 5.62 µM [inhibitor, full curve, poor fit]
COC1=C(C)C(O)=C(C(=O)/C=C/c2ccccc2)C(=O)C1(C)C	–	inconclusive: 3.55 µM [inhibitor, single point]
CCOC(=O)CN(C(=O)CN1CCC(n2nnc3cc(C)ccc32)CC1)c1ccccc1	–	inconclusive: 3.98 µM [inhibitor, single point]
O=C(N/N=C/c1coc2ccccc2c1=O)c1cc(Br)ccc1O	–	inconclusive: 5.32 µM [inhibitor, single point]
C[C@]12C[C@H](O)C3[C@@H](CCC4=CC(=O)CC[C@@]43C)[C@@H]1CC[C@@H]2C(=O)CO (some centres not stated)	–	inconclusive: 8.91 µM [inhibitor, single point]
Cc1cc(C)n(/N=C/c2ccco2)c(=O)c1C#N	–	inconclusive: 14.1 µM [inhibitor, partial curve]
CS(=O)(=O)N1N=C(c2cccs2)CC1c1ccc(F)cc1 (configuration not stated)	–	inconclusive: 0.891 µM [inhibitor, partial curve]
CN1Cc2c(N3CCOCC3)nc(SCCC#N)c(C#N)c2CC1(C)C	inactive: 11.1%	–
Cc1cc(C)cc(Oc2ccccc2/C=N\O)c1	–	inconclusive: 0.891 µM [inhibitor, full curve, poor fit]
O=C(CCn1cnnn1)Nc1ccccc1	–	inconclusive: 44.7 µM [inhibitor, single point]

Reference: PubChem BioAssay AID2517 (National Center for Advancing Translational Sciences (NCATS), 2010)
